Among all 53,000 sequences or so, about 3,700 (7%) were called active.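 The calls were made as follows: active = gene knockdowns whose robust z-score for IL-1 alpha signal is at least 2 or at most -2, so actives lie on both sides; inactive = the rest.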 This is one part of the list.

This experiment is described as follows: Components of the Cytosolic LPS Sensing Pathway: Gene Identification via Genome-wide siRNA Screen.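 Also: robust z of the log signal after scaling to non-targeting control siRNA wells of the plate.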 The conditions noted are these: RAW264.7 macrophages, IL-1a HTRF, actives lie on both sides, screened at 100 nM (by protocol), cells primed 5 h with Pam3CSK4 first. An outline of the steps: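 Knockdown: 100 nM siRNA, 48h, RAW264.7. Stimulation: Pam3CSK4 5 h, then LipidA via TransIT-TKO 24 h. Output: supernatant IL-1a HTRF, negative-control-normalized, log robust z-score; viability by CellTiter-Glo.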
AGCAUCAUUACUGGAUUCCTT against Olfr859: the z-score was inactive: -0.779.
As for GCAGUUAAAUCCCUUUCAUTT against Gin1, the figure is inactive: -0.228.
Regarding GGAUUACAAUCAGGAGGUGTT against Irf8, the z-score is inactive: -1.64.
Turning to GCACAACAGCUAGCAAAUATT against Ppp1r26, the z-score was inactive: 0.704.
Next, CCUCUCACUAAAGACUUCCTT against Dlgap2: inactive: 1.31.
For GGGUGAUGAUGCAUAUAAGTT against Asb5, the z-score was inactive: -1.45.
As for GGAAUUUGCUGAAUUUAGUTT against Kdm4c, the figure is inactive: 0.681; as for GGGUACUCACAGGAAAGUGTT against Olfr411, inactive: 0.985; as for CGAGGAACUUCUGUGGAAATT against Mtus1, inactive: 1.34.
As to GGCGUGGAUUCUCAGAUAGTT against Pnn, the z-score was inactive: -1.66.
As for CCCUCCAAUAUGGUUCACCTT against Optn, the z-score is inactive: -0.684.
As for GGAGGUGGAUGUUAAAGUUTT against Ubxn2a, the figure is inactive: -0.206; as for GGUCUCAUUUCAAAUGGUUTT against Lonrf3, inactive: 0.63.
GCUGAGGCAUAAAAACGAGTT against Atad3a: the z-score is inactive: -0.643.
Consider GGUCUUUCCAUUCAUACUUTT against Sec24a, for which the z-score is inactive: -1.52.
Next, GGUGUUCUGUGGUCAUGAGTT against Haghl: inactive: -0.741.
Consider CCUCUACUACAACUGAUUATT against Lamp3, for which the z-score is inactive: 1.17.
Regarding GAGCUACGAGGUACAGUUATT against Ifi202b, the z-score is inactive: 1.29.
Next, GCUUACCAAGUGAACACACTT against Mrpl12: inactive: 0.906.
As for GGCAAGGCUACUACUUGCATT against Fgf14, the z-score was inactive: -0.117.
GGUGACGUAAUACGUUUCUTT against Lrrc59: the z-score was inactive: -0.141.
With CCGGCUAAGAAAGACAAUUTT against Dync1li1, the z-score is inactive: -0.483.
Turning to CGGCGAUGAGAUUUUCCAUTT against H2-Ea, the z-score is inactive: 1.35.
Take CGAUGGUGGUUCUUAUUUUTT against Otx1: the z-score is inactive: 1.5.
Next, CCCGCUUUUUUUUCUGGACTT against Ndufa8: inactive: 1.11; GGGAGUUGUAGUAUUAGUATT against Zfp94: inactive: -1.19.
As for GGGCUUCUGCUUUUACUACTT against Ppm1j, the figure is inactive: 1.9; as for GGUGCUUUGACCUAUAUCUTT against Fdxacb1, inactive: 0.578; as for CCAACCGUUUGCUACUCUUTT against Gtpbp6, inactive: 1.54.
As to GGUCAUCAGUGAUCAGUCATT against Mre11a, the z-score is inactive: -1.33.
CGACUAAGGAUGAAAAGCATT against Apbb1ip: the z-score was active: -3.04.
As for AACCGAACUGAUAAGAACUTT against Bag5, the figure is inactive: 1.05.
As for GCUAACUUAGAUAUCCAGGTT against Abtb2, the figure is inactive: 0.125; as for GCACCGAAUGCACAAUCUCTT against Tmem222, inactive: 0.365.
Next, CCACCAGAUACAGGAUCUATT against Brinp2: inactive: 1.48.
Consider GGAGUUCCUCAAGAAUUUUTT against Arpc4, for which the z-score is inactive: -1.39.
Next, GGGUAAAAUCAGUGAACCUTT against Smap2: inactive: -0.925; GGCUUUCUUUGUCUUCUCCTT against Adcy3: inactive: -0.936; GCUUUAAGUCGUAAUCUAGTT against Ank: inactive: 1.32.
Next, GGUGUGCUGAAAUUUCAAATT against Themis: inactive: 1.7; GCUAUUUCUGCCUUUAGUCTT against Scamp5: inactive: -0.0682.
Consider GGCCUAUGAAGUACUAUCUTT against Dnajb2, for which the z-score was inactive: -0.181.
Next, GACCUUGGUUAUUCUACAGTT against Olfr1087: inactive: -1.14; CCUUCCUUUACCGAUACUCTT against Dennd4b: inactive: -0.21; GGUGCUAAAGGAGCUUCUGTT against Commd4: inactive: 0.00328.
For the sequence “CCCAGAAUAGAGGAGAACATT against 4933427D14Rik”, the z-score is inactive: -0.918.
As for GGUGAAAAAAACAGGAUCCTT against Wnt11, the figure is inactive: 0.28; as for GGUGGCAAAGUGGUGAUCCTT against Fabp7, active: 2.05; as for CCACUGACAUUCCUAUUAUTT against Capn6, inactive: -0.0642.
Next, GGACAUGAGGCUUCUGAGATT against Tpsb2: inactive: 1.22; CCGUGGUGCAAGCUUACAUTT against Atp2b4: inactive: 0.616; GGCCUAAAUGUGGAUUUUGTT against Phf6: inactive: -1.98.
Next, GGAAAAGGUGUCUUCCGUGTT against Crybb2: inactive: 0.2; GGGCUCACACAAAUAAGAGTT against Tmem88: inactive: -0.403; GGUUAUUUCUCUCUCCCUATT against Creld1: inactive: 0.524.
Take GGACCUGAAUUCCACUCCUTT against Socs1: the z-score is inactive: -0.147.
As for CCGAAUGGAAUACCAAAUUTT against Cst8, the z-score was inactive: 1.7.
Next, GGCAAUGGGAAAAUCGUGUTT against Gp5: inactive: 1.51; GGAGUCCUUUCGUUCUAUCTT against Rab2a: inactive: -0.319; GGUUGUGCAACACAGCUCUTT against Olfr218: active: -2.31.
Turning to GGGACUGUACAACCACUCUTT against En1, the z-score was inactive: -0.93.
As for GGCUUCUUCCUCGUCUUUGTT against Leprot, the figure is inactive: -0.876; as for GGAAGUGUGCUUUCUUUCCTT against Triqk, inactive: 0.692.
As for GCCCUAGGAGGAACUGAGUTT against Olfr458, the figure is active: -2.54.
As for GGUAUCCAUGUUAUGCUGUTT against Cyp4a12a, the figure is inactive: -0.299.
For the sequence GGGUUUUUGUUAGAUGUUATT against Rab3b, the z-score was inactive: -1.57.
Next, GCACGAAUCAUUGUUCAAATT against Chmp7: inactive: 0.939.
Regarding GGAAGCUGUUUGAACUCGCTT against Cuedc1, the z-score is inactive: -0.243.
Next, “GGAGGUAAUUACAUAAUGGTT against 9930022D16Rik”: inactive: 0.165.
Consider GGAAACUUCUUCCCGGUUGTT against Gsdmc, for which the z-score was inactive: 1.16.
Next, GCCAUUGUGACUGGAGACATT against Olfr804: inactive: -1.55; CCGUUGACCUGAAAAGGAATT against Clic4: inactive: -0.0288; GGAAGUUUGCUCAAUCUCATT against Jarid2: inactive: 1.12.
As for GGAUCUUCCUGGAUGCCAATT against Hps1, the z-score is active: -2.61.
Next, GGCUAGCAUCACAUGACUUTT against Tmem65: inactive: -1.71; GGACUUUCAGUUAUAUAGGTT against Ogfod3: inactive: 0.0701; CCUCCUCUAUACAAACAUGTT against Hcar2: inactive: 0.364.
Take GCAAUCUAUAAGAGGUACATT against Axin2: the z-score is inactive: 1.79.
For GGAACCAAUCUGUCUCUCCTT against Cbfb, the z-score is active: -2.07.
On to GGACUUGUGAUUCAAGCAUTT against Rad23b, for which the z-score was inactive: 0.525.
Next, GGAAGGGAUGCUCAUAGUATT against Hgfac: inactive: -0.0314; CGGUGUUGGUAAAUGUCACTT against Olfr1427: inactive: -0.93.
As for GCGGCAAUAUAAGCUACGUTT against Fbln7, the figure is inactive: -1.17.
Take GGUCGCUGGAGACCUUAGUTT against Hjurp: the z-score is inactive: -1.88.
Take GGGAAGAGCCAUCUCUUUUTT against Olfr140: the z-score was inactive: 0.0521.
Next, GGAGAUAAUGAAAACUGCUTT against Cst13: inactive: 0.774.
For the sequence GGGUUCAAAAGCCCAUAUUTT against Gm6787, the z-score is inactive: 0.206.
Next, GGGCUUAAUGGUAAAAUGATT against Slc40a1: inactive: 0.292; GGAUACGAUCCAGUGUGCCTT against Lyzl4: inactive: 1.04.
Next, GCCAUGAUGCAUUAUGUAUTT against Haglr: inactive: -0.331; GGCUCUUAAUUGACUUUGATT against Cdk16: inactive: -1.15.
Take GGAGUGUAAUAACUUCUUATT against Washc5: the z-score is inactive: 0.202.
As for GCCUCUAGAAUGUAUGGAGTT against Wdr47, the figure is inactive: 0.817; as for “GGCCAUUGCUGGUUCUGCATT against 4930412M03Rik”, inactive: -0.957.
In the case of GGAGGACAUUGAGAAGGAATT against Tnni3, the z-score is inactive: 0.468.
Take CCAUUCUUAGUUCACUAUATT against Rgcc: the z-score was active: -2.55.
Next, GGUGGAAGAGGUCAAAUAATT against Denr: inactive: 1.05; GGCUCUACUGGUGAAGAGATT against Zfp459: inactive: 0.804; GGGAACAGAAGUCAAGAGATT against Bex4: inactive: 0.0293.
As for GGGCCUGGAAAACAUUGACTT against Ndufa1, the z-score is inactive: -0.316.
As to GCGAUUCUGUAAAGAGCGCTT against Nme1, the z-score is inactive: 1.9.
For GGACACUUUCUCAUAUCAUTT against Abca9, the z-score was active: 2.06.
On to CCGUACAUAUGGUGAUCCATT against Rtn1, for which the z-score is inactive: -0.162.
Next, GCAUGAUAACAGCACUAGGTT against Serpinb3c: inactive: -0.446; GGUAAAUCAGCCAUAGUUUTT against Tafa3: inactive: 1.53.
Take GGUCAUCAUGUCCAUCCGATT against Rpl10: the z-score is inactive: 0.319.
Next, GGACAUUGAAGCCAUGGAUTT against Nsf: inactive: -0.0436.

For the origin of these results see PubChem BioAssay AID1508600 (Functional Genomics Laboratory (NCATS/FGL), 2020).
